The supplement of paper PMC6078165
The reference is the same well before dosing, and untreated signal decays as well.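 Fibroblast labels name human fibroblasts: mostly primary ones from tissues such as uterus (C12385, HUF), lung (H6013), bone (Hs27A), adrenal (HADF) and skin (WS1), plus mammary HMF and breast cancer-associated Hs343T. The cancer cells are basal-like or mesenchymal-like triple-negative breast cancer lines. The paper calls a changed response a hit when it shifts by more than 3x the replicate standard deviation. The tissue of the other fibroblasts is not given here.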

Tested on: MDAMB468
Assay: relative JC-1 red fluorescence (viability) vs pre-drug, coculture with fibroblast (fraction); higher = more viable cancer cells
Description: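 JC-1 labelled TNBC cells cocultured 1:1 (1,500 cells each) with CellTrace Violet stained primary or stromal fibroblasts in 384-well plates in FluoroBrite medium, treated with one of 42 anticancer drugs at 0.1, 1, 10 or 100 uM. JC-1 red fluorescence (mitochondrial integrity in cancer cells only) was read by plate reader every 8 h for 72 h. Values are normalised to each well's pre-drug value. The stock of one drug was tenfold lower, so its dose labels may be too high.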

CO[C@H]1C[C@@H]2CC[C@@H](C)[C@@](O)(O2)C(=O)C(=O)N2CCCC[C@H]2C(=O)O[C@H]([C@H](C)C[C@@H]2CC[C@@H](O)[C@H](OC)C2)CC(=O)[C@H](C)/C=C(\C)[C@@H](O)[C@@H](OC)C(=O)[C@H](C)C[C@H](C)/C=C/C=C/C=C/1C [Rapamycin]
relative JC-1 red fluorescence
Conditions	8 h	16 h	24 h	32 h	40 h	48 h	56 h	64 h	72 h
0.1 µM, coculture fibroblast: C12385	0.859	0.777	0.734	0.684	0.643	0.63	0.604	0.583	0.573
0.1 µM, coculture fibroblast: H6013	0.8388	0.8436	0.80445	0.7983	0.783	0.799	0.785	0.785	0.752
0.1 µM, coculture fibroblast: H6019	0.8343	0.797	0.752	0.704	0.667	0.657	0.619	0.592	0.58
0.1 µM, coculture fibroblast: H6076	0.9194	0.899	0.904	0.881	0.824	0.81	0.772	0.756	0.777
0.1 µM, coculture fibroblast: H6231	0.821	0.864	0.887	0.857	0.814	0.7861	0.7361	0.7087	0.6891
0.1 µM, coculture fibroblast: HADF	0.867	0.8089	0.757	0.7495	0.711	0.721	0.684	0.6822	0.6551
0.1 µM, coculture fibroblast: HCFa	0.821	0.8	0.747	0.73	0.677	0.687	0.64	0.6042	0.5631
0.1 µM, coculture fibroblast: HCPF	0.86	0.9255	0.852	0.8538	0.7872	0.767	0.709	0.698	0.688
0.1 µM, coculture fibroblast: HHSteC	0.873	0.84	0.815	0.792	0.765	0.775	0.725	0.706	0.664
0.1 µM, coculture fibroblast: HMF	0.79698	0.977	0.881	0.838	0.783	0.758	0.708	0.693	0.673
0.1 µM, coculture fibroblast: HPFa	0.925	0.8614	0.8334	0.789	0.773	0.787	0.736	0.723	0.655
0.1 µM, coculture fibroblast: HUF	0.8963	0.818	0.767	0.715	0.677	0.658	0.616	0.602	0.587
0.1 µM, coculture fibroblast: Hs5	0.814	0.961	0.873	0.841	0.781	0.742	0.695	0.659	0.669
0.1 µM, coculture fibroblast: Hs27A	0.844	0.7926	0.733	0.741	0.684	0.692	0.659	0.652	0.624
0.1 µM, coculture fibroblast: Hs343T	0.8712	0.949	0.87	0.8344	0.7662	0.7519	0.7124	0.699	0.679
0.1 µM, coculture fibroblast: WS1	0.8432	0.7775	0.728	0.669	0.618	0.583	0.558	0.535	0.526
1 µM, coculture fibroblast: C12385	0.8725	0.842	0.811	0.771	0.735	0.729	0.697	0.685	0.672
1 µM, coculture fibroblast: H6013	0.875	0.867	0.839	0.851	0.822	0.833	0.813	0.808	0.786
1 µM, coculture fibroblast: H6019	0.877	0.87	0.865	0.829	0.805	0.82	0.799	0.787	0.775
1 µM, coculture fibroblast: H6076	0.916	0.972	0.937	0.9296	0.8856	0.886	0.854	0.841	0.885
1 µM, coculture fibroblast: H6231	0.814	0.936	0.873	0.874	0.83843	0.8252	0.77	0.755	0.755
1 µM, coculture fibroblast: HADF	0.865	0.848	0.8017	0.8058	0.7659	0.763	0.726	0.727	0.692
1 µM, coculture fibroblast: HCFa	0.846	0.842	0.813	0.806	0.743	0.751	0.713	0.697	0.653
1 µM, coculture fibroblast: HCPF	0.845	0.929	0.8781	0.87483	0.826	0.802	0.76	0.75	0.743
1 µM, coculture fibroblast: HHSteC	0.8734	0.8492	0.82705	0.8142	0.77388	0.781	0.74	0.722	0.683
1 µM, coculture fibroblast: HMF	0.8269	0.973	0.919	0.899	0.85	0.841	0.801	0.795	0.784
1 µM, coculture fibroblast: HPFa	0.899	0.907	0.898	0.8666	0.84	0.859	0.814	0.809	0.756
1 µM, coculture fibroblast: HUF	0.87583	0.852	0.824	0.778	0.741	0.726	0.689	0.679	0.666
1 µM, coculture fibroblast: Hs5	0.9729	0.9455	0.919	0.894	0.828	0.807	0.777	0.749	0.774
1 µM, coculture fibroblast: Hs27A	0.82	0.8085	0.7566	0.7738	0.7252	0.736	0.7115	0.7	0.677
1 µM, coculture fibroblast: Hs343T	0.866	0.964	0.9078	0.883	0.8257	0.807	0.754	0.753	0.742
1 µM, coculture fibroblast: WS1	0.8642	0.807	0.775	0.724	0.689	0.663	0.649	0.639	0.632
10 µM, coculture fibroblast: C12385	0.975	0.958	0.8839	0.833	0.872	0.901	0.839	0.962	0.9702
10 µM, coculture fibroblast: H6013	0.83	0.839	0.828	0.884	0.895	0.923	0.917	0.917	0.896
10 µM, coculture fibroblast: H6019	0.8521	0.8	0.784	0.761	0.754	0.772	0.741	0.744	0.743
10 µM, coculture fibroblast: H6076	0.9006	0.9626	0.8678	0.8526	0.748	0.701	0.656	0.631	0.677
10 µM, coculture fibroblast: H6231	0.7992	0.789	0.947	0.966	0.915	0.89	0.842	0.811	0.801
10 µM, coculture fibroblast: HADF	0.865	0.85	0.792	0.792	0.7526	0.741	0.692	0.669	0.609
10 µM, coculture fibroblast: HCFa	0.80488	0.752	0.718	0.708	0.679	0.696	0.656	0.63	0.576
10 µM, coculture fibroblast: HCPF	0.8415	0.776	0.942	0.93	0.866	0.838	0.764	0.748	0.734
10 µM, coculture fibroblast: HHSteC	0.845	0.872	0.877	0.8948	0.899	0.92	0.864	0.839	0.781
10 µM, coculture fibroblast: HMF	0.824	0.731	0.895	0.922	0.877	0.865	0.81	0.791	0.757
10 µM, coculture fibroblast: HPFa	0.867	0.907	0.939	0.805	0.849	0.831	0.841	0.894	0.898
10 µM, coculture fibroblast: HUF	0.759	0.793	0.826	0.889	0.875	0.9	0.86	0.811	0.79
10 µM, coculture fibroblast: Hs5	0.868	0.975	0.917	0.879	0.807	0.755	0.696	0.653	0.668
10 µM, coculture fibroblast: Hs27A	0.771	0.8023	0.7608	0.8112	0.7736	0.8009	0.7849	0.769	0.709
10 µM, coculture fibroblast: Hs343T	0.8724	0.816	0.9597	0.9022	0.824	0.799	0.755	0.748	0.716
10 µM, coculture fibroblast: WS1	0.9084	0.811	0.754	0.647	0.566	0.53	0.493	0.468	0.453
100 µM, coculture fibroblast: C12385	0.857	0.765	0.565	0.497	0.375	0.3591	0.3607	0.391	0.417
100 µM, coculture fibroblast: H6013	0.872	0.98405	0.909	0.856	0.73	0.617	0.5	0.488	0.479
100 µM, coculture fibroblast: H6019	0.917	0.701	0.596	0.545	0.43	0.33	0.269	0.259	0.286
100 µM, coculture fibroblast: H6076	0.898	0.728	0.694	0.647	0.51	0.451	0.453	0.483	0.599
100 µM, coculture fibroblast: H6231	0.82	0.785	0.792	0.854	0.799	0.805	0.778	0.76	0.765
100 µM, coculture fibroblast: HADF	0.958	0.834	0.724	0.68	0.564	0.456	0.373	0.398	0.3849
100 µM, coculture fibroblast: HCFa	0.899	0.825	0.731	0.681	0.567	0.485	0.398	0.373	0.371
100 µM, coculture fibroblast: HCPF	0.882	0.972	0.9193	0.9252	0.8563	0.839	0.795	0.78	0.768
100 µM, coculture fibroblast: HHSteC	0.956	0.878	0.769	0.708	0.598	0.504	0.374	0.343	0.335
100 µM, coculture fibroblast: HMF	0.8538	0.846	0.949	0.92	0.861	0.849	0.787	0.764	0.734
100 µM, coculture fibroblast: HPFa	0.925	0.822	0.871	0.774	0.682	0.607	0.499	0.447	0.385
100 µM, coculture fibroblast: HUF	0.954	0.829	0.65	0.551	0.41	0.318	0.288	0.315	0.337
100 µM, coculture fibroblast: Hs5	0.802	0.744	0.675	0.607	0.508	0.412	0.363	0.375	0.451
100 µM, coculture fibroblast: Hs27A	0.848	0.802	0.808	0.791	0.697	0.626	0.504	0.465	0.437
100 µM, coculture fibroblast: Hs343T	0.8955	0.918	0.956	0.952	0.886	0.874	0.834	0.827	0.8171
100 µM, coculture fibroblast: WS1	0.915	0.797	0.695	0.625	0.47	0.351	0.326	0.329	0.365
